The list shows a part of the results. Most values lie at the level of the controls, where differences are scatter.
The targets below were run with CN[C@@H]1C[C@H]2O[C@@](C)([C@@H]1OC)n1c3ccccc3c3c4c(c5c6ccccc6n2c5c31)C(=O)NC4 [staurosporine] (assay: log2 fold change of tryptic peptide abundance, ligand vs vehicle (limited proteolysis) (log2 ratio); higher = more trypsin-susceptible (destabilized)). Settings: ligand concentration: 20 uM; sample: mouse liver crude lysate; replicate design: treated separately.

Protein sequences, listed by entry. Tags and fused reporters are not part of them. Lines headed by an entry give the natural chain unless they say otherwise; changes in a name come on top.
UniProt P24472: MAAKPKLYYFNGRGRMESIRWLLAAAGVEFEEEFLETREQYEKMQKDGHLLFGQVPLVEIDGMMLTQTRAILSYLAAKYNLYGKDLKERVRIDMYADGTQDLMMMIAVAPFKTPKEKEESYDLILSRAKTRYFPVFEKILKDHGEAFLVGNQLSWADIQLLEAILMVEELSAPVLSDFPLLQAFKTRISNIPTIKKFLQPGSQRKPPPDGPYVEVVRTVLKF
UniProt P23204: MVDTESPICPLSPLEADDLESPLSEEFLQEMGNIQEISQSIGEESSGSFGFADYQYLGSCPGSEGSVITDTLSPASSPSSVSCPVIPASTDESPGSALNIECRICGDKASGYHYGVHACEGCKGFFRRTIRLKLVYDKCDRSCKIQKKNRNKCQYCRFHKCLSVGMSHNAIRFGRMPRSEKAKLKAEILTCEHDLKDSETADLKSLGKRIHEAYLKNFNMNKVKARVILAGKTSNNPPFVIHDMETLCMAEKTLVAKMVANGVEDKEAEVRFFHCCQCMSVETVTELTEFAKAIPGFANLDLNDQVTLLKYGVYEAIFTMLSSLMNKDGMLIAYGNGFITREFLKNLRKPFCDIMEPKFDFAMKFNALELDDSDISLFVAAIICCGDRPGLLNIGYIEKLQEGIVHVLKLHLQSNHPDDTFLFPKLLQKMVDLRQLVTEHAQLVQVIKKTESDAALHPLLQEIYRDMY
UniProt P22518: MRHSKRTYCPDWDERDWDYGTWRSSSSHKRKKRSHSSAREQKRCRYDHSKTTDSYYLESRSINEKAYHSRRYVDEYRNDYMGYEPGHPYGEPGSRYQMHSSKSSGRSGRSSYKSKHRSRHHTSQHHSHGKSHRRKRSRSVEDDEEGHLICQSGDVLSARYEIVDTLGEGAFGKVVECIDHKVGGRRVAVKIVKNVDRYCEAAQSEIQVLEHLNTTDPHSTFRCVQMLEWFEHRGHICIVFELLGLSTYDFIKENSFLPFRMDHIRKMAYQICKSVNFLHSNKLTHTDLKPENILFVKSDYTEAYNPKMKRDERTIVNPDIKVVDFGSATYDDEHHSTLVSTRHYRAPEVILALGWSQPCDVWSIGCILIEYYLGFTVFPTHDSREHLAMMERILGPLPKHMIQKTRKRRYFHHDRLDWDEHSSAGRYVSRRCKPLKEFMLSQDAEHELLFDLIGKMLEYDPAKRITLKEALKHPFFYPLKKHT
UniProt P29758: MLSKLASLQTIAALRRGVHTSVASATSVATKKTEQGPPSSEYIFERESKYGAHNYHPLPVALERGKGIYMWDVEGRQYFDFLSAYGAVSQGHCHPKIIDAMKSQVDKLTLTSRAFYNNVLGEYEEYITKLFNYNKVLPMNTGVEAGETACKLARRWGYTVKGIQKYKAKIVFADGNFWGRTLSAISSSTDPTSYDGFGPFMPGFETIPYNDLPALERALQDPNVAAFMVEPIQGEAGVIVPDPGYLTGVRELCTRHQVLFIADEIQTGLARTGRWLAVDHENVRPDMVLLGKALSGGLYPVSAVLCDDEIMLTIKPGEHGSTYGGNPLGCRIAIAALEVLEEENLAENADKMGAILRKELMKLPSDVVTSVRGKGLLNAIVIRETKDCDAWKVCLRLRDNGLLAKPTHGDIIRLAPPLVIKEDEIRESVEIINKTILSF
UniProt P25799: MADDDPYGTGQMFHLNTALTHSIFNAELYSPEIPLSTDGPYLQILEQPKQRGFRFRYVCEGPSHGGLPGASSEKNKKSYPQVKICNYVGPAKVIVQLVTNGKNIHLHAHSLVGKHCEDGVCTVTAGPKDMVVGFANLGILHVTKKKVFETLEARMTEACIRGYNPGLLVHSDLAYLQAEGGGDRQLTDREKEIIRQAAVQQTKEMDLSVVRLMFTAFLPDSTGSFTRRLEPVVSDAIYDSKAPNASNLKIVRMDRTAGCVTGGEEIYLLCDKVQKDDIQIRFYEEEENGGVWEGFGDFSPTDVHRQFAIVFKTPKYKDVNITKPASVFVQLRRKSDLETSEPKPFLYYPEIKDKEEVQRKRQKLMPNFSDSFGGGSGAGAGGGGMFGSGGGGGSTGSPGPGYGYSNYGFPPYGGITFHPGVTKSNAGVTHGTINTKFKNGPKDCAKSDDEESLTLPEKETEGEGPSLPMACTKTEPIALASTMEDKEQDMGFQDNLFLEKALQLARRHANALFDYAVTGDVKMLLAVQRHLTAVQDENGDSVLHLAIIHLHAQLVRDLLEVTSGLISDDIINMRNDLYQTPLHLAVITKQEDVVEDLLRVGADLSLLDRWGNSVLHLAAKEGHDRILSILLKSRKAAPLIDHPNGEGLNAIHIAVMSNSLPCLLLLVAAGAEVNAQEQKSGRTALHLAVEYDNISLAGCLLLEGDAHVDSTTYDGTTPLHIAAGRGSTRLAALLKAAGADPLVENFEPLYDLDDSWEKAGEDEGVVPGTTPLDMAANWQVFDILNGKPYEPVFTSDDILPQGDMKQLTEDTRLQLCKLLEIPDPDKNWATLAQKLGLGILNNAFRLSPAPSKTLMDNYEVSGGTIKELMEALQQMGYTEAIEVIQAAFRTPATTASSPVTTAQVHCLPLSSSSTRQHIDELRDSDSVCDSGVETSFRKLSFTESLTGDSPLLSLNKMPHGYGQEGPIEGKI
UniProt P24721: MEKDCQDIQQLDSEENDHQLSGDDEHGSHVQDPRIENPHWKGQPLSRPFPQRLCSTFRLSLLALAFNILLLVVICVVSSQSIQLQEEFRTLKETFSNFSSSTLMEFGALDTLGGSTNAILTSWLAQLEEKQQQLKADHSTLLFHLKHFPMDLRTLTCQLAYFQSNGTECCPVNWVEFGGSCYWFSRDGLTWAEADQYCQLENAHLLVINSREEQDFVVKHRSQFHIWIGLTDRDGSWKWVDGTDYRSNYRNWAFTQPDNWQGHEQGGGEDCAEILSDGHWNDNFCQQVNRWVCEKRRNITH
UniProt P31649: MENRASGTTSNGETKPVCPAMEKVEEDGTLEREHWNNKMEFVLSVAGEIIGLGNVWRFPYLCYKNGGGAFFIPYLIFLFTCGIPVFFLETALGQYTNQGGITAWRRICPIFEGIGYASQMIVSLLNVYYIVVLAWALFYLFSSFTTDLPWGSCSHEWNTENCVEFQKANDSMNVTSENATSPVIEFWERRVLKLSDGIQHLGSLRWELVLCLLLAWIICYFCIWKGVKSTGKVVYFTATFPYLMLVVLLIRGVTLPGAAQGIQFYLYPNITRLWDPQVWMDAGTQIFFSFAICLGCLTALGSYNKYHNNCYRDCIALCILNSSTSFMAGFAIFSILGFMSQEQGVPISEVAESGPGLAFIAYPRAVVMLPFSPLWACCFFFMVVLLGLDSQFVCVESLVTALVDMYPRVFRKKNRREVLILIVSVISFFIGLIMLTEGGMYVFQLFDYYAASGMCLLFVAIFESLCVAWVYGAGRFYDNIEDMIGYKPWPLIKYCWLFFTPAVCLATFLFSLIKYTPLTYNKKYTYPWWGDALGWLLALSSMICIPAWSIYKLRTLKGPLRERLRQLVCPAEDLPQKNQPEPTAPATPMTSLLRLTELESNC
UniProt P33267: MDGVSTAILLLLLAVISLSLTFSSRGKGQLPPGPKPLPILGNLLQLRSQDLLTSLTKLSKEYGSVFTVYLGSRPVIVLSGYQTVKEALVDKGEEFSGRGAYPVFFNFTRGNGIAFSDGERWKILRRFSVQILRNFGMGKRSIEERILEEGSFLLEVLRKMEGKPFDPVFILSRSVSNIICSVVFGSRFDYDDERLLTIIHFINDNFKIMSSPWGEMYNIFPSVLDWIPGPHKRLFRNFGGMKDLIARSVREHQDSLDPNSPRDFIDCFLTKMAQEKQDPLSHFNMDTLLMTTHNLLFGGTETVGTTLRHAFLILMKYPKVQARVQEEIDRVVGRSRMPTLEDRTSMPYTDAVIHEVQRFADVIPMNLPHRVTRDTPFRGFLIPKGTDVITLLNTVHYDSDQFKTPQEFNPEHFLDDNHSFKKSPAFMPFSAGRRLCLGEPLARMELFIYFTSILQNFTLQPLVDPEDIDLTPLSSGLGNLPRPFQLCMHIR

Target | log2 fold change
UniProt P24472 (peptide sequence: LYYFNGR, peptide start residue: 7) | 0.0905
UniProt P23204 (peptide sequence: MVANGVEDKEAEVR, peptide start residue: 258) | 0.165
UniProt P22518 (peptide sequence: YFHHDRLDWDEHSSAGR, peptide start residue: 410) | 0.695
UniProt P29758 (peptide sequence: GLLNAIVIR, peptide start residue: 375) | -0.214
UniProt P25799 (peptide sequence: QLTEDTR, peptide start residue: 806) | -0.272
UniProt P24721 (peptide sequence: WVDGTDYR, peptide start residue: 239) | 0.104
UniProt P31649 (peptide sequence: ASGTTSNGETKPVCPAMEK, peptide start residue: 5) | -0.334
UniProt P33267 (peptide sequence: SQDLLTSLTK, peptide start residue: 48) | 0.2

From the supplement of paper PMC12819154, “High-throughput peptide-centric local stability assay extends protein–ligand identification to membrane proteins, tissues and bacteria” (Nature Structural & Molecular Biology, 2025)
